The list is a part of this screen's results and no random one: it gathers tests that were run many times, whatever their T/C, doses with no T/C, and many T/C values between a quarter and a half above the control. Other doses and runs of a compound stand elsewhere. T/C: endpoint of the treated group in % of that of the vehicle group. Some entries give survivors of the animals treated and no T/C: the source holds a T/C of zero for them, seemingly a mark for toxic or unscored doses. Some survivor counts are full or nearly so, which does not show that the dose was tolerated: survival well below the control is almost never listed, so the zero probably covers shortened survival too. Counts of survivors are from the toxicity check (mostly the fifth day) where no day follows; animals may have died later. Schedule codes are those of the source, read here as Q, the interval in days (D) or hours (H), X, the number of doses. Signs of the kind (2×) count equal records among those shown. Some doses were run more than once; their values stand side by side, smallest first. Some schedule codes hold Z or #, which are not explained here. Where survival is the endpoint, this PubChem deposit counts one and a half times the control or more as active, and values a quarter to a half above the control carry no call in these data; other NCI protocols may use other cut-offs. Some T/C values carry the count of animals alive at the toxicity check (mostly the fifth day); without a count, all were alive then.
Test system: L1210 leukemia ip in BDF1 mice, survival T/C
Test: NCI In Vivo Anticancer Drug Screen. Data for tumor model L1210 Leukemia (intraperitoneal) in B6D2F1 (BDF1) mice
Settings: higher T/C = longer survival
[1] = T/C endpoint: mean survival time, dose: 400.0 mg/kg/injection, schedule: Q01DX009 (ip), vehicle: Klucel (hydroxypropylcellulose) (HPC)
[2] = T/C endpoint: mean survival time, dose: 400.0 mg/kg/injection, schedule: Q04DX003 (ip), vehicle: Klucel (hydroxypropylcellulose) (HPC)
[3] = T/C endpoint: mean survival time, dose: 200.0 mg/kg/injection, schedule: Q04DX003 (ip), vehicle: saline
[4] = T/C endpoint: mean survival time, dose: 400.0 mg/kg/injection, schedule: Q04DX003 (ip), vehicle: saline
[5] = T/C endpoint: mean survival time, dose: 300.0 mg/kg/injection, schedule: Q01DX001 (ip), vehicle: saline

Question: Which survivor count [1] does the source give for `O=C(/C=C/c1ccccc1)NN1CCCCC1` here?
Answer: 0 of 6

Question: And the survivor count [2]?
Answer: 1 of 6

Question: For `O=[N+]([O-])c1cc2c3ccccc3oc2c2cccnc12`, which survivor count [1] is on record?
Answer: 5 of 5

Question: `Cc1c(NC(=O)Nc2cccc(C(F)(F)F)c2)c(=O)n(-c2ccccc2)n1C` was tested. Which survivor count (T/C endpoint: mean survival time, dose: 100.0 mg/kg/injection, schedule: Q01DX009 (ip), vehicle: Klucel (hydroxypropylcellulose) (HPC)) did it give?
Answer: 6 of 6 (2×)

Question: And the survivor count [1]?
Answer: 5 of 6

Question: What does the source list for `OC(CC(O)(C(F)(F)F)C(F)(F)F)CC(O)(C(F)(F)F)C(F)(F)F`?
Answer: survivor count (T/C endpoint: mean survival time, dose: 50.0 mg/kg/injection, schedule: Q01DX009 (ip), vehicle: saline with Tween-80): 6 of 6; survivor count (T/C endpoint: mean survival time, dose: 100.0 mg/kg/injection, schedule: Q01DX009 (ip), vehicle: saline with Tween-80): 2 of 6; survivor count (T/C endpoint: mean survival time, dose: 200.0 mg/kg/injection, schedule: Q04DX003 (ip), vehicle: saline with Tween-80): 3 of 6; survivor count (T/C endpoint: mean survival time, dose: 400.0 mg/kg/injection, schedule: Q04DX003 (ip), vehicle: saline with Tween-80): 5 of 6

Question: With `O=C(C=C(C(F)(F)Cl)C(F)(F)Cl)c1cccs1` as the compound, how does the survivor count (T/C endpoint: mean survival time, dose: 20.0 mg/kg/injection, schedule: Q01DX009 (ip), vehicle: saline) read?
Answer: 0 of 6

Question: For `CN(C)CC(O)c1ccc2oc3ccccc3c2c1` (stereo not given), which survivor count (T/C endpoint: mean survival time, dose: 400.0 mg/kg/injection, schedule: Q01DX001 (ip), vehicle: saline) is on record?
Answer: 0 of 3

Question: `CC1([N+](=O)[O-])COP(=O)(Nc2ccc(F)cc2)OC1` (stereo not given) was tested. Which survivor count (T/C endpoint: mean survival time, dose: 400.0 mg/kg/injection, schedule: Q01DX001 (ip), vehicle: carboxymethylcellulose (CMC)) did it give?
Answer: 0 of 4

Question: `CC(C)(C)C(=O)C=C(C(F)(F)F)C(F)(F)F` was tested. Which survivor count (T/C endpoint: mean survival time, dose: 50.0 mg/kg/injection, schedule: Q01DX009 (ip), vehicle: saline) did it give?
Answer: 0 of 6

Question: What about the survivor count (T/C endpoint: mean survival time, dose: 100.0 mg/kg/injection, schedule: Q04DX003 (ip), vehicle: saline) of the same compound?
Answer: 6 of 6

Question: What about the survivor count [3] of the same compound?
Answer: 3 of 6

Question: What about the survivor count [4] of the same compound?
Answer: 0 of 6

Question: With `Clc1nn2cnnc2c2ccccc12` as the compound, how does the survivor count (T/C endpoint: mean survival time, dose: 40.0 mg/kg/injection, schedule: Q04DX003 (ip), vehicle: saline) read?
Answer: 1 of 4

Question: And the survivor count (T/C endpoint: mean survival time, dose: 80.0 mg/kg/injection, schedule: Q04DX003 (ip), vehicle: saline)?
Answer: 0 of 4

Question: `C=CCC(C#N)(CCN(C)C)c1cccc2ccccc12` (stereo not given) was tested. Which survivor count [1] did it give?
Answer: 0 of 6

Question: For `c1ccc(CN2CCCCC2)nc1`, which survivor count (T/C endpoint: mean survival time, dose: 40.0 mg/kg/injection, schedule: Q01DX009 (ip), vehicle: Klucel (hydroxypropylcellulose) (HPC)) is on record?
Answer: 2 of 6

Question: How did the survivor count (T/C endpoint: mean survival time, dose: 400.0 mg/kg/injection, schedule: Q01DX001 (ip), vehicle: Klucel (hydroxypropylcellulose) (HPC)) turn out when `CCN(CC)CCn1c(CC23CC4CC(CC(C4)C2)C3)nc2cc([N+](=O)[O-])ccc21` was run?
Answer: 6 of 6

Question: `CSCS(=O)C[C@H](CO)NC(=O)/C=C/c1c(C)[nH]c(=O)[nH]c1=O` (stereo not given in full) was tested. Which survivor count (T/C endpoint: mean survival time, dose: 1.0 mg/kg/injection, schedule: Q01DX Z (ip), vehicle: carboxymethylcellulose (CMC)) did it give?
Answer: 6 of 6

Question: What about the survivor count (T/C endpoint: mean survival time, dose: 1.25 mg/kg/injection, schedule: Q01DX Z (ip), vehicle: carboxymethylcellulose (CMC)) of the same compound?
Answer: 6 of 6

Question: And the survivor count (T/C endpoint: mean survival time, dose: 1.5 mg/kg/injection, schedule: Q01DX Z (ip), vehicle: carboxymethylcellulose (CMC))?
Answer: 6 of 6

Question: And the T/C (T/C endpoint: mean survival time, dose: 1.56 mg/kg/injection, schedule: Q04DX002 (ip), vehicle: Klucel (hydroxypropylcellulose) (HPC))?
Answer: 130 % of control

Question: And the T/C (T/C endpoint: mean survival time, dose: 3.13 mg/kg/injection, schedule: Q04DX002 (ip), vehicle: Klucel (hydroxypropylcellulose) (HPC))?
Answer: 130 % of control

Question: What about the survivor count (T/C endpoint: mean survival time, dose: 6.25 mg/kg/injection, schedule: Q04DX002 (ip), vehicle: Klucel (hydroxypropylcellulose) (HPC)) of the same compound?
Answer: 0 of 3

Question: What about the survivor count (T/C endpoint: mean survival time, dose: 12.5 mg/kg/injection, schedule: Q04DX002 (ip), vehicle: Klucel (hydroxypropylcellulose) (HPC)) of the same compound?
Answer: 1 of 3

Question: And the survivor count (T/C endpoint: mean survival time, dose: 25.0 mg/kg/injection, schedule: Q04DX002 (ip), vehicle: Klucel (hydroxypropylcellulose) (HPC))?
Answer: 1 of 3

Question: What about the survivor count (T/C endpoint: mean survival time, dose: 50.0 mg/kg/injection, schedule: Q04DX002 (ip), vehicle: Klucel (hydroxypropylcellulose) (HPC)) of the same compound?
Answer: 0 of 3

Question: And the survivor count (T/C endpoint: mean survival time, dose: 100.0 mg/kg/injection, schedule: Q04DX002 (ip), vehicle: Klucel (hydroxypropylcellulose) (HPC))?
Answer: 0 of 3

Question: And the survivor count (T/C endpoint: mean survival time, dose: 200.0 mg/kg/injection, schedule: Q04DX002 (ip), vehicle: Klucel (hydroxypropylcellulose) (HPC))?
Answer: 0 of 3

Question: What about the survivor count (T/C endpoint: mean survival time, dose: 400.0 mg/kg/injection, schedule: Q04DX002 (ip), vehicle: Klucel (hydroxypropylcellulose) (HPC)) of the same compound?
Answer: 0 of 3

Question: And the T/C (T/C endpoint: median survival time, dose: 1.0 mg/kg/injection, schedule: Q04DX003 (ip), vehicle: saline)?
Answer: 125 % of control

Question: What about the T/C (T/C endpoint: median survival time, dose: 2.0 mg/kg/injection, schedule: Q04DX003 (ip), vehicle: saline) of the same compound?
Answer: 128 % of control

Question: What about the survivor count (T/C endpoint: median survival time, dose: 8.0 mg/kg/injection, schedule: Q04DX003 (ip), vehicle: saline) of the same compound?
Answer: 1 of 8

Question: What about the survivor count (T/C endpoint: median survival time, dose: 16.0 mg/kg/injection, schedule: Q04DX003 (ip), vehicle: saline) of the same compound?
Answer: 0 of 8

Question: Which survivor count (T/C endpoint: mean survival time, dose: 200.0 mg/kg/injection, schedule: Q01DX009 (ip), vehicle: Klucel (hydroxypropylcellulose) (HPC)) does the source give for `CC(=O)Nc1nccs1` here?
Answer: 3 of 6

Question: What about the survivor count [2] of the same compound?
Answer: 1 of 6

Question: `Nc1cc(Cl)ccc1NCCO` was tested. Which survivor count (T/C endpoint: mean survival time, dose: 132.0 mg/kg/injection, schedule: Q01DX009 (ip), vehicle: saline) did it give?
Answer: 6 of 6

Question: What about the survivor count (T/C endpoint: mean survival time, dose: 200.0 mg/kg/injection, schedule: Q04DX003 (ip), vehicle: acetone) of the same compound?
Answer: 6 of 6

Question: What about the survivor count (T/C endpoint: mean survival time, dose: 300.0 mg/kg/injection, schedule: Q04DX003 (ip), vehicle: acetone) of the same compound?
Answer: 0 of 6

Question: `COc1cc(-c2c3c(cc4c2OCO4)CC(O)C(C(=O)O)C3)cc(OC)c1OC` (stereo not given) was tested. Which T/C [5] did it give?
Answer: 125 % of control [4 of 6 alive]

Question: And the survivor count [5]?
Answer: 2 of 6

Question: What about the survivor count (T/C endpoint: mean survival time, dose: 450.0 mg/kg/injection, schedule: Q01DX001 (ip), vehicle: Klucel (hydroxypropylcellulose) (HPC)) of the same compound?
Answer: 3 of 6

Question: What about the survivor count (T/C endpoint: mean survival time, dose: 450.0 mg/kg/injection, schedule: Q01DX001 (ip), vehicle: saline) of the same compound?
Answer: 1 of 6

Question: What does the source list for `CC(=O)OCC1OC(N2C(=O)/C(=C/c3ccc(Cl)cc3)SC2=S)C(OC(C)=O)C(OC(C)=O)C1OC(C)=O` (stereo not given)?
Answer: survivor count (T/C endpoint: mean survival time, dose: 50.0 mg/kg/injection, schedule: Q01DX005 (ip), vehicle: other): 6 of 6; survivor count (T/C endpoint: mean survival time, dose: 100.0 mg/kg/injection, schedule: Q01DX005 (ip), vehicle: other): 5 of 6; survivor count (T/C endpoint: mean survival time, dose: 200.0 mg/kg/injection, schedule: Q01DX005 (ip), vehicle: other): 1 of 6; survivor count (T/C endpoint: mean survival time, dose: 400.0 mg/kg/injection, schedule: Q01DX005 (ip), vehicle: other): 0 of 6

Question: Which survivor count (T/C endpoint: mean survival time, dose: 100.0 mg/kg/injection, schedule: Q01DX009 (ip), vehicle: acetone) does the source give for `Cc1cc(C)c(C(=O)C(=S)N2CCOCC2)c(C)c1` here?
Answer: 6 of 6

Question: Which survivor count (T/C endpoint: mean survival time, dose: 200.0 mg/kg/injection, schedule: Q01DX009 (ip), vehicle: gum acacia) does the source give for `O=C1NC(c2cccc(Cl)c2)N2C(=O)NC(c3cccc(Cl)c3)N12` (stereo not given) here?
Answer: 6 of 6

Question: Which survivor count (T/C endpoint: mean survival time, dose: 200.0 mg/kg/injection, schedule: Q01DX009 (ip), vehicle: saline) does the source give for `CN(C)CCOCCOC(=O)N1c2ccccc2Sc2ccccc21` here?
Answer: 0 of 6

Question: And the survivor count [3]?
Answer: 0 of 4

Question: What about the survivor count (T/C endpoint: mean survival time, dose: 400.0 mg/kg/injection, schedule: Q01DX009 (ip), vehicle: saline) of the same compound?
Answer: 0 of 6

Question: What about the survivor count [4] of the same compound?
Answer: 0 of 4

Question: `CCCCCCCCC/C(=N\N=C(N)N)c1ccccc1` was tested. Which survivor count (T/C endpoint: mean survival time, dose: 100.0 mg/kg/injection, schedule: Q01DX Z (oral), vehicle: methylcellulose (MC)) did it give?
Answer: 2 of 6

Question: And the survivor count (T/C endpoint: mean survival time, dose: 200.0 mg/kg/injection, schedule: Q01DX Z (oral), vehicle: methylcellulose (MC))?
Answer: 3 of 6

Question: How did the survivor count (T/C endpoint: mean survival time, dose: 400.0 mg/kg/injection, schedule: Q01DX001 (ip), vehicle: saline with Tween-80) turn out when `O=C(O)CCCCCN1C(=O)c2cccc([N+](=O)[O-])c2C1=O` was run?
Answer: 6 of 6

Question: Which T/C (T/C endpoint: mean survival time, dose: 200.0 mg/kg/injection, schedule: Q04DX002 (ip), vehicle: saline with Tween-80) does the source give for `CN=NCc1ccccc1` here?
Answer: 125 % of control

Question: What about the survivor count (T/C endpoint: mean survival time, dose: 400.0 mg/kg/injection, schedule: Q04DX002 (ip), vehicle: saline with Tween-80) of the same compound?
Answer: 1 of 3 and 3 of 3

Question: How did the survivor count (T/C endpoint: mean survival time, dose: 100.0 mg/kg/injection, schedule: Q04DX003 (ip), vehicle: Klucel (hydroxypropylcellulose) (HPC)) turn out when `[NH-]c1ccccc1C(=O)O.[NH-]c1ccccc1C(=O)O.[Zn+2]` was run?
Answer: 6 of 6

Question: And the survivor count (T/C endpoint: mean survival time, dose: 200.0 mg/kg/injection, schedule: Q04DX003 (ip), vehicle: Klucel (hydroxypropylcellulose) (HPC))?
Answer: 5 of 6

Question: What about the survivor count [2] of the same compound?
Answer: 0 of 6

Question: Which survivor count (T/C endpoint: mean survival time, dose: 300.0 mg/kg/injection, schedule: Q01DX001 (ip), vehicle: Klucel (hydroxypropylcellulose) (HPC)) does the source give for `CC(=O)OC1=C(c2ccccc2)C(=O)c2ccccc21` here?
Answer: 3 of 6

Reference: PubChem BioAssay AID248 (DTP/NCI, 2004)
